Measurements from PubChem BioAssay AID743467 (Broad Institute, 2014).
Inconclusive means that the source gave no clear call. Such entries were picked first, then a sample of the others. Activity calls are given as the source filed them.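 How the source made its calls: active means compound lowering PGC-1a expression with fitted half-maximal concentration at most twice its top tested dose; inconclusive means flat curve with moderate opposite-direction effect, or poor fit; inactive means the rest.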

experiment: hepatocyte PGC-1a gene expression decrease – cell-based, primary mouse hepatocytes, RT-qPCR, cherry-pick, PGC-1a acetylation activator project, dose response (AID 743467); conditions: PGC-1a mRNA qPCR, forskolin, active compounds read high; at 26 µM, top dose 26 µM unless noted;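 further: 0% = neutral control wells median and 100% = positive control wells median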

SMILES	max activity (PGC-1a expression decrease)
COc1ccc(S(=O)(=O)N(C)CC(=O)Nc2cccc(C(C)=O)c2)cc1Cl	inconclusive: 83.7% [at 8 µM, top dose 26 µM]
O=C(CCn1nnc2ccccc21)Nc1nnc(Cc2ccccc2)s1	inconclusive: 176% [at 0.035 µM, top dose 26 µM]
CC(=O)Nc1nonc1-c1nc2ccccc2n1Cc1ccccc1	inconclusive: 106% [at 0.0012 µM, top dose 26 µM]
O=C(CN1CCC(n2c(=O)[nH]c3ccccc32)CC1)NCc1ccc(Cl)s1	inactive: 15.1% [at 3 µM, top dose 26 µM]
CC(Oc1ccc(Cl)cc1Cl)c1nc(-c2ccc(NC(=O)c3cccnc3)cc2)no1 (centres undefined)	inconclusive: 188%
COC(=O)C[C@@H]1C[C@H]2c3cc(NC(=O)Nc4ccc(C(F)(F)F)cc4)ccc3O[C@H]2[C@H](CO)O1	inactive: 24.8% [at 0.1 µM]
c1coc(CN(Cc2cccs2)Cc2nnnn2C2CCCCC2)c1	inconclusive: 103%
COc1ccc(S(=O)(=O)N2CCOCC2)cc1NC(=O)CCNC(=O)c1ccc(Cl)cc1	inconclusive: 77.6%
CCOC(=O)C1CCCN(S(=O)(=O)c2ccc3c(c2)NC(=O)CO3)C1 (centres undefined)	inconclusive: 130% [at 0.3 µM, top dose 26 µM]
COc1ccc(N(C(=O)c2snc(C(N)=O)c2N)C(C(=O)NC2CCCCC2)c2ccc(C)o2)cc1 (centres undefined)	inactive: 37.1% [at 2.85 µM, top dose 26 µM]
O=C(Nc1cccnc1)c1ccc(Oc2ccccc2)cc1	inconclusive: 68.9% [at 8 µM]
CN(C)CCCNc1cc(-c2ccccc2)nc2cc(-c3cccc(F)c3)nn12	inconclusive: 126%
CC12CCC(C1)C(C)(C)C2NS(=O)(=O)c1ccc(F)cc1 (centres undefined)	inconclusive: 179%
CCn1cnc2cc(NCc3ccc(N(C)C)cc3)ccc21	inconclusive: 125%
O=C(COCc1cc(-c2ccc3c(c2)OCO3)on1)Nc1cccnc1	inconclusive: 94% [at 0.9 µM, top dose 26 µM]
COc1ccc(N(C(=O)c2csnn2)C(C(=O)NC2CCCC2)c2cccs2)cc1 (centres undefined)	inconclusive: 83.3%
Nc1c(C(=O)Nc2ccccc2)c2nc3ccccc3nc2n1CCCN1CCOCC1	inactive: -11.6% [at 0.0012 µM, top dose 26 µM]
CCN(CC)CC(=O)N1c2ccccc2CCc2ccc(NC(=O)c3cc(OC)c(OC)c(OC)c3)cc21	inactive: 131%
CC(C)(C)c1ccc(C(=O)c2c[nH]c(C(=O)NCc3cccnc3)c2)cc1	inconclusive: 132% [at 0.1 µM, top dose 26 µM]
CCOC(=O)C(C)n1cnc2c(nnn2-c2ccc(C)cc2)c1=O (centres undefined)	inconclusive: 124%
CCO[C@H]1OC(C(=O)N2CCCCCCC2)=C[C@@H](C2CCCCC2)[C@@H]1CCCO	inactive: 50.8%
COc1ccccc1-c1ccc2c(c1)C(C)(Cc1ccc(OC(F)(F)F)cc1)C(=O)N2 (centres undefined)	inactive: 50.7%
COc1cc(CN2CCC(C(=O)NCCC(C)C)CC2)ccc1OCc1ccccc1	inactive: 55.7%
C[C@@H]1CN([C@H](C)CO)C(=O)c2c(c3ccccc3n2C)-c2ccccc2CO[C@@H]1CN(C)C(=O)c1ccccc1	inconclusive: 132%

Two entries from above, field by field.
COc1cc(CN2CCC(C(=O)NCCC(C)C)CC2)ccc1OCc1ccccc1
  max activity (PGC-1a expression decrease): inactive: 55.7%
C[C@@H]1CN([C@H](C)CO)C(=O)c2c(c3ccccc3n2C)-c2ccccc2CO[C@@H]1CN(C)C(=O)c1ccccc1
  max activity (PGC-1a expression decrease): inconclusive: 132%
